Reference: PubChem BioAssay AID256 (DTP/NCI, 2004)
The list does not hold the whole screen: it is rich in T/C values a quarter to a half above the control, in often repeated tests (any T/C) and in doses without a T/C. Other doses and runs of a compound stand elsewhere. T/C gives the treated animals as a percentage of the vehicle group. Some doses have a count of surviving animals in place of a T/C: the source holds a T/C of zero for them, seemingly a mark for toxic or unscored doses. Some survivor counts are full or nearly so, which does not show that the dose was tolerated: survival well below the control is almost never listed, so the zero probably covers shortened survival too. Survivors were counted at the toxicity check, usually on the fifth day, unless a day is given; later deaths do not show. Schedules are NCI's codes, taken here to give the interval after Q, in days (D) or hours (H), and the number of doses after X. Some entries hold several experiments; the results are listed from low to high. Marks such as (2×) give the number of equal values in this list. Where survival is the endpoint, the PubChem record calls one and a half times the control and up active, and a quarter to a half above the control has no call in these data; cut-offs in other NCI protocols can differ. Some T/C values are followed by the survivors on the day toxicity was checked, most often the fifth; where none is given, no animal had died by that day.

System: CD2F1 mice, L1210 leukemia ip, survival T/C
Assay: NCI In Vivo Anticancer Drug Screen. Data for tumor model L1210 Leukemia (intraperitoneal) in CD2F1 (CDF1) mice
Details: higher T/C = longer survival
How it was run: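 Vehicle-treated tumor-bearing mice served as controls (C) for compound-treated mice (T). Reported figure is T divided by C.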

[1] = T/C endpoint: mean survival time, dose: 100.0 mg/kg/injection, schedule: Q01DX001 (ip), vehicle: saline
[2] = T/C endpoint: mean survival time, dose: 200.0 mg/kg/injection, schedule: Q01DX001 (ip), vehicle: saline
[3] = T/C endpoint: mean survival time, dose: 400.0 mg/kg/injection, schedule: Q01DX001 (ip), vehicle: saline
[4] = T/C endpoint: mean survival time, dose: 400.0 mg/kg/injection, schedule: Q04DX002 (ip), vehicle: saline with Tween-80
[5] = T/C endpoint: mean survival time, dose: 300.0 mg/kg/injection, schedule: Q01DX001 (ip), vehicle: other
[6] = T/C endpoint: mean survival time, dose: 400.0 mg/kg/injection, schedule: Q01DX009 (ip), vehicle: saline with Tween-80
[7] = T/C endpoint: mean survival time, dose: 150.0 mg/kg/injection, schedule: Q01DX001 (ip), vehicle: saline
[8] = T/C endpoint: mean survival time, dose: 300.0 mg/kg/injection, schedule: Q01DX001 (ip), vehicle: saline
[9] = T/C endpoint: mean survival time, dose: 100.0 mg/kg/injection, schedule: Q01DX009 (ip), vehicle: saline with Tween-80
[10] = T/C endpoint: mean survival time, dose: 200.0 mg/kg/injection, schedule: Q04DX003 (ip), vehicle: saline with Tween-80
[11] = T/C endpoint: mean survival time, dose: 400.0 mg/kg/injection, schedule: Q04DX003 (ip), vehicle: saline with Tween-80
[12] = T/C endpoint: mean survival time, dose: 200.0 mg/kg/injection, schedule: Q01DX009 (ip), vehicle: saline with Tween-80
[13] = T/C endpoint: mean survival time, dose: 100.0 mg/kg/injection, schedule: Q04DX002 (ip), vehicle: saline with Tween-80
[14] = T/C endpoint: mean survival time, dose: 80.0 mg/kg/injection, schedule: Q01DX001 (ip), vehicle: saline

O=C1OC(c2ccccc2)(c2ccccc2)C(=O)N1c1ccc(Br)cc1
survivor count (T/C endpoint: median survival time, dose: 50.0 mg/kg/injection, schedule: Q04DX003 (ip), vehicle: saline with Tween-80): 3 of 3
survivor count (T/C endpoint: median survival time, dose: 100.0 mg/kg/injection, schedule: Q04DX003 (ip), vehicle: saline with Tween-80): 3 of 3
survivor count (T/C endpoint: median survival time, dose: 200.0 mg/kg/injection, schedule: Q04DX003 (ip), vehicle: saline with Tween-80): 2 of 3

CC1(C)C2C3C=CC(C3)C2S1(=O)=O (stereo not drawn)
survivor count (T/C endpoint: mean survival time, dose: 10.0 mg/kg/injection, schedule: Q01DX001 (ip), vehicle: saline): 3 of 6
survivor count [1]: 0 of 6
survivor count [2]: 0 of 6
survivor count [3]: 0 of 6

O=C(COc1ccc(F)cc1)OCCOC(=O)COc1ccc(F)cc1
survivor count [4]: 3 of 3

COc1cc([C@@H]2c3cc4c(cc3C[C@H]3COC(=O)[C@@H]32)OCO4)cc(OC)c1OC
survivor count (T/C endpoint: mean survival time, dose: 50.0 mg/kg/injection, schedule: Q01DX015 (ip), vehicle: saline): 0 of 6

O=C(O)c1cccnc1.[Cu+2]
survivor count (T/C endpoint: mean survival time, dose: 75.0 mg/kg/injection, schedule: Q01DX001 (ip), vehicle: other): 1 of 6
survivor count (T/C endpoint: mean survival time, dose: 150.0 mg/kg/injection, schedule: Q01DX001 (ip), vehicle: other): 1 of 6
survivor count [5]: 0 of 6

O=C(OC12CCCC1CC2)c1ccc([N+](=O)[O-])cc1 (stereo not drawn)
survivor count [6]: 6 of 6

CCOc1cc(NCCCN)c2nc(OCc3ccccc3)ccc2c1
survivor count [7]: 0 of 6
survivor count [8]: 0 of 6

Nc1ccccc1Nc1ccncc1
survivor count [9]: 1 of 6
survivor count [10]: 3 of 6
survivor count [11]: 2 of 6

Cc1c2cnccc2c(C)c2c1c1ccccc1n2CCCCCCCl
survivor count [11]: 3 of 6

CCCCCCCc1c(C)c2ccc(OC)cc2[nH]c1=O
survivor count [11]: 3 of 6

COc1ccc(CN2CCCNCC2)cc1
survivor count (T/C endpoint: mean survival time, dose: 400.0 mg/kg/injection, schedule: Q01DX005 (ip), vehicle: water): 0 of 6

CC1(C)N=C(N)N=C(N)N1c1ccc(OCc2ccc(C(=O)Nc3cccc(S(=O)(=O)F)c3)cc2)c(Cl)c1
T/C (T/C endpoint: mean survival time, dose: 50.0 mg/kg/injection, schedule: Q04DX003 (ip), vehicle: saline): 146 % of control
T/C (T/C endpoint: mean survival time, dose: 100.0 mg/kg/injection, schedule: Q04DX003 (ip), vehicle: saline): 142 % of control
survivor count (T/C endpoint: mean survival time, dose: 400.0 mg/kg/injection, schedule: Q04DX003 (ip), vehicle: saline): 6 of 6

C=CCCCCCCCCCCC(=O)OC
survivor count [11]: 6 of 6

CN1CCC(CCOCc2ccccc2)(CN2c3ccccc3Sc3ccccc32)C1 (stereo not drawn)
survivor count (T/C endpoint: mean survival time, dose: 100.0 mg/kg/injection, schedule: Q04DX003 (ip), vehicle: saline with Tween-80): 3 of 6
survivor count [10]: 1 of 6
survivor count [11]: 0 of 6

CCOC(=O)C(C(=O)OCC)C1CCC2(C)CCC(=O)C=C2C1 (stereo not drawn)
T/C [4]: 136 % of control

C=C(Cl)COC1CCS(=O)(=O)C1 (stereo not drawn)
survivor count (T/C endpoint: mean survival time, dose: 50.0 mg/kg/injection, schedule: Q01DX009 (ip), vehicle: saline with Tween-80): 0 of 3
survivor count [9]: 0 of 3
survivor count [12]: 0 of 3

Nc1nc(=S)c2ncn(C3C=CC(O)C(CO)O3)c2[nH]1 (stereo not drawn)
T/C (T/C endpoint: mean survival time, dose: 178.0 mg/kg/injection, schedule: Q01DX001 (ip), vehicle: saline): 129 % of control
T/C (T/C endpoint: mean survival time, dose: 267.0 mg/kg/injection, schedule: Q01DX001 (ip), vehicle: saline): 138 % of control
T/C [3]: 129 % of control
T/C (T/C endpoint: mean survival time, dose: 600.0 mg/kg/injection, schedule: Q01DX001 (ip), vehicle: saline): 127 % of control

CC(C)=C(CO)CCC(C)C
survivor count [11]: 0 of 6

COC(=O)/C=C\C(=O)O
survivor count (T/C endpoint: mean survival time, dose: 200.0 mg/kg/injection, schedule: Q01DX009 (ip), vehicle: saline): 3 of 6

Cc1ccc(/C=N/N2C(=O)CSC2=S)cc1
survivor count [5]: 2 of 6

CN=C(Nc1ccc(OC)c2ccccc12)SC
survivor count (T/C endpoint: mean survival time, dose: 400.0 mg/kg/injection, schedule: Q04DX003 (ip), vehicle: Klucel (hydroxypropylcellulose) (HPC)): 2 of 6

C1CCC(C2CCCC[N-]2)[N-]C1.C1CCC(C2CCCC[N-]2)[N-]C1.C1CCC(C2CCCC[N-]2)[N-]C1.[Fe+6] (stereo not drawn)
survivor count [1]: 0 of 6
survivor count [2]: 0 of 6
survivor count [3]: 0 of 6

O=NN(CCCl)C(=O)Nc1cc(NC(=O)N(CCCl)N=O)cc(C(=O)O)c1
survivor count (T/C endpoint: mean survival time, dose: 40.0 mg/kg/injection, schedule: Q04DX003 (ip), vehicle: saline with Tween-80): 6 of 6

CCCCCCCC/C=C/CCCCCC1CCCC(C)N1 (stereo not drawn)
survivor count [13]: 0 of 3
survivor count (T/C endpoint: mean survival time, dose: 200.0 mg/kg/injection, schedule: Q04DX002 (ip), vehicle: saline with Tween-80): 0 of 3 and 3 of 3
survivor count [4]: 0 of 3 (2×)

COc1cc(OC)c(NC(=O)Nc2cccc(SC)c2)cc1Cl
survivor count [12]: 3 of 3

CCC12CCCN3CCc4c(n(c5ccccc45)C(O)(C(=O)OC)C1)C32 (stereo not drawn)
survivor count (T/C endpoint: mean survival time, dose: 75.0 mg/kg/injection, schedule: Q01DX001 (ip), vehicle: saline): 0 of 6
survivor count [14]: 0 of 6
survivor count [7]: 0 of 6
survivor count [8]: 0 of 6

CCC[CH2][Sn]1([CH2]CCC)[O]C(=O)c2c(Cl)c(Cl)c(Cl)c(Cl)c2C(=O)[O]1
survivor count (T/C endpoint: mean survival time, dose: 40.0 mg/kg/injection, schedule: Q01DX001 (ip), vehicle: saline): 2 of 4
survivor count [14]: 2 of 4
survivor count [1]: 0 of 4
survivor count [2]: 0 of 4
survivor count [3]: 0 of 4

CCC[CH2][Sn]([Br])([c]1ccccc1)[c]1ccccc1
survivor count (T/C endpoint: mean survival time, dose: 6.25 mg/kg/injection, schedule: Q01DX009 (ip), vehicle: saline with Tween-80): 4 of 6
survivor count (T/C endpoint: mean survival time, dose: 12.5 mg/kg/injection, schedule: Q01DX009 (ip), vehicle: saline with Tween-80): 0 of 6
survivor count (T/C endpoint: mean survival time, dose: 25.0 mg/kg/injection, schedule: Q01DX009 (ip), vehicle: saline with Tween-80): 0 of 6
survivor count (T/C endpoint: mean survival time, dose: 25.0 mg/kg/injection, schedule: Q04DX002 (ip), vehicle: saline with Tween-80): 0 of 3
survivor count (T/C endpoint: mean survival time, dose: 50.0 mg/kg/injection, schedule: Q04DX002 (ip), vehicle: saline with Tween-80): 0 of 3
survivor count [13]: 0 of 3

O=C(Nc1nncs1)c1cccs1
T/C [12]: 125 % of control
T/C [6]: 133 % of control
T/C (T/C endpoint: median survival time, dose: 50.0 mg/kg/injection, schedule: Q01DX009 (ip), vehicle: saline with Tween-80): 97 (2×), 101, 109 % of control
T/C (T/C endpoint: median survival time, dose: 100.0 mg/kg/injection, schedule: Q01DX009 (ip), vehicle: saline with Tween-80): 98 (3×), 105, 106, 121 % of control
T/C (T/C endpoint: median survival time, dose: 200.0 mg/kg/injection, schedule: Q01DX009 (ip), vehicle: saline with Tween-80): 103, 104, 106, 117, 121, 123 % of control
T/C (T/C endpoint: median survival time, dose: 400.0 mg/kg/injection, schedule: Q01DX009 (ip), vehicle: saline with Tween-80): 120, 125, 135, 136, 147, 164 % of control
T/C (T/C endpoint: median survival time, dose: 800.0 mg/kg/injection, schedule: Q01DX009 (ip), vehicle: saline with Tween-80): 123 [5 of 6 alive], 135, 139, 144 [5 of 6 alive], 170 % of control (2×)

COc1ccc2c(c1)c1c(C)c3cnccc3c(C)c1n2CCO
T/C [11]: 131 % of control [5 of 6 alive]

CC(=O)Oc1ccc(/C=N/NC(N)=S)nc1
T/C (T/C endpoint: mean survival time, dose: 9.4 mg/kg/injection, schedule: Q01DX009 (ip), vehicle: saline with Tween-80): 136 % of control
T/C (T/C endpoint: mean survival time, dose: 18.8 mg/kg/injection, schedule: Q01DX009 (ip), vehicle: saline with Tween-80): 142 % of control
